Reference: US20070117868A1, “Use of n-arylhydrazine derivatives for combating non-crop pests” (priority 2004, published 2007)
Some of these results come from one statement about several compounds together.

Tests used:
Assay type in all cases: in vivo
[1] = test system: Rhipicephalus sanguineus; experiment: Activity via glass contact, brown dog tick; conditions: rate 10 ppm
[2] = test system: Crematogaster spp.; experiment: Activity via bait, acrobat ant; conditions: rate 1.5 w %
[3] = test system: Crematogaster spp.; experiment: Activity via glass contact, acrobat ant; conditions: rate 10 ppm

Structure (SMILES) | Days or Hours to achieve 100% mortality [1] [days] | Days or Hours to achieve 100% mortality [2] [days] | Days or Hours to achieve 100% mortality [3] [days]
CCN/C(=N\Nc1c(Cl)cc(C(F)(F)F)cc1Cl)C(C)(C)C [Compound I-1, N-ethyl-2,2-dimethylpropionamide-2-(2,6-dichloro-α,α,α-trifluoro-p-tolyl)-hydrazone] | 3 to 5 | 6 to 7 | 1 to 2
CCN/C(=N\Nc1c(Cl)cc(C(F)(F)F)cc1Cl)C1(C)CC1(Cl)Cl (stereo not drawn) [Compound I-2, N-Ethyl-2,2-dichloro-1-methylcyclopropanecarboxamide-2-(2,6-dichloro-α,α,α-tri-fluoro-p-tolyl)hydrazone] | 3 to 5 | 6 to 7 | 1 to 2
